PubChem BioAssay AID1259279 | Sanger Institute, 2017
The whole screen tested 794 reagents; this is a part drawn at random. Over the whole deposit, 11 (1.4%) are marked active. 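Calls reflect knock-down alone in the vehicle arm, not drug synergy.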 Not all columns of the deposit are shown. Reagent sequences are not shown. The record does not give: the amount of reagent, the time to read-out.

Test: 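Kinase-wide knock-down seeking synergy with BYL719, cetuximab or trametinib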 (primary screen)
Cell system: LS180 human colorectal cancer cells
Reagents: siRNA pool against human genes
Treatment: anchor drug BYL719 at 1 µM, cetuximab at 5 µg/ml or trametinib at 10 nM, or DMSO vehicle only
Measured: 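Viability as a fraction of non-targeting control and as a replicate-averaged robust z-score, with separate synergy scores for BYL719, cetuximab and trametinib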
Direction: viability z-score, no drug: higher = more viable cells after knock-down
Rule for the call: 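Essential (active) calls need a no-drug viability z-score lower than -3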
Calls: active = essential (knock-down alone cuts viability); inactive = no change without drug

CDC7 (GeneID 8317) [SID56478594] | viability z-score, no drug: 0.86; call: inactive
ARID1A (GeneID 8289) [SID152147093] | viability z-score, no drug: 0.255; call: inactive
TRIB2 (GeneID 28951) [SID56479059] | viability z-score, no drug: -0.891; call: inactive
MAP3K6 (GeneID 9064) [SID56478746] | viability z-score, no drug: -0.411; call: inactive
RAD21 (GeneID 5885) [SID134311994] | viability z-score, no drug: -1.94; call: inactive
PKN1 (GeneID 5585) [SID56478783] | viability z-score, no drug: 0.86; call: inactive
ITK (GeneID 3702) [SID135620623] | viability z-score, no drug: 0.86; call: inactive
STK10 (GeneID 6793) [SID56478780] | viability z-score, no drug: 0.86; call: inactive
VRK2 (GeneID 7444) [SID152152279] | viability z-score, no drug: -0.788; call: inactive
TEC (GeneID 7006) [SID152148252] | viability z-score, no drug: 0.279; call: inactive
EPHB1 (GeneID 2047) [SID152152600] | viability z-score, no drug: 0.84; call: inactive
NUAK2 (GeneID 81788) [SID56479046] | viability z-score, no drug: 0.599; call: inactive
MUSK (GeneID 4593) [SID56478536] | viability z-score, no drug: -0.291; call: inactive
MYH10 (GeneID 4628) [SID134325581] | viability z-score, no drug: -0.391; call: inactive
BCOR (GeneID 54880) [SID135620845] | viability z-score, no drug: 0.86; call: inactive
LIMK2 (GeneID 3985) [SID152148517] | viability z-score, no drug: 0.774; call: inactive
PRKCA (GeneID 5578) [SID56478672] | viability z-score, no drug: -0.534; call: inactive
EFNA4 (GeneID 1945) [SID134312013] | viability z-score, no drug: -0.148; call: inactive
NTRK1 (GeneID 4914) [SID152154627] | viability z-score, no drug: 0.103; call: inactive
IPPK (GeneID 64768) [SID152153893] | viability z-score, no drug: 0.86; call: inactive
EFNA5 (GeneID 1946) [SID152151552] | viability z-score, no drug: 0.86; call: inactive
RPS6KA6 (GeneID 27330) [SID152153100] | viability z-score, no drug: -0.5; call: inactive
PIKFYVE (GeneID 200576) [SID152154410] | viability z-score, no drug: -0.082; call: inactive
PKN2 (GeneID 5586) [SID152156352] | viability z-score, no drug: 0.473; call: inactive
KCNH2 (GeneID 3757) [SID135621164] | viability z-score, no drug: 0.86; call: inactive
PAK3 (GeneID 5063) [SID56478716] | viability z-score, no drug: 0.135; call: inactive
CDK14 (GeneID 5218) [SID56478888] | viability z-score, no drug: 0.86; call: inactive
KCNH8 (GeneID 131096) [SID134311656] | viability z-score, no drug: 0.494; call: inactive
